Measurements reported in PubChem BioAssay AID720505 (Drosophila RNAi Screening Center, 2013)

Screen: 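Genes needed for store-operated calcium entry in fly cells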 (primary screen)
System: Drosophila S2R+ cells
Reagents: long dsRNA against Drosophila genes
Challenge: thapsigargin (2 µM) in calcium-free buffer to empty internal stores, then 2 mM calcium added back
Measured: 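Fluo-4 signal in 384-well plates read on a FLIPR after thapsigargin (2 µM, calcium-free) store depletion and 2 mM calcium add-back; unnormalised mean endpoint per well; screen run twice, selected wells retested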
Scale: calcium signal and retest calcium signal: higher = more calcium entry after store depletion
Call rule: 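About 1500 genes called as lowering calcium entry, by varying amounts, judged against per-plate control wells with STIM1 as positive and Rho1 as negative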
Calls: active = called as lowering calcium entry; inactive = not called
The deposit covers about 20,000 reagents; below is an unselected part of those with a known target gene and a result. Over the whole deposit, about 2,100 (10%) were called active. 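Raw plate signals without normalisation; calls rest on control-based scores that were not deposited; replicate 2 separates called from uncalled poorly.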 The record does not give: the amount of reagent, the time to read-out.

CG9812 [DRSC04566]
- calcium signal, replicate 1: 105
- calcium signal, replicate 2: 160
- activity call: inactive

CG30324 [DRSC22655]
- calcium signal, replicate 1: 108
- calcium signal, replicate 2: 196
- activity call: inactive

Su(P) (Suppressor of ref(2)P sterility) [DRSC11291]
- calcium signal, replicate 1: 75.8
- calcium signal, replicate 2: 124
- activity call: inactive

Mmp2 (Matrix metalloproteinase 2) [DRSC06698]
- calcium signal, replicate 1: 105
- calcium signal, replicate 2: 134
- activity call: inactive

Mmp2 (Matrix metalloproteinase 2) [DRSC22024]
- calcium signal, replicate 1: 66.3
- calcium signal, replicate 2: 217
- activity call: inactive

Stat92E [DRSC16870]
- calcium signal, replicate 1: 194
- calcium signal, replicate 2: 265
- activity call: inactive

Ssu72 (Ssu72 CTD phosphatase) [DRSC19572]
- calcium signal, replicate 1: 241
- calcium signal, replicate 2: 81.8
- activity call: inactive

BomS6 (Bomanin Short 6) [DRSC21676]
- calcium signal, replicate 1: 149
- calcium signal, replicate 2: 110
- activity call: inactive

Rrp5 (Ribosomal RNA Processing 5) [DRSC15862]
- calcium signal, replicate 1: 254
- calcium signal, replicate 2: 225
- activity call: inactive

krz (kurtz) [DRSC16979]
- calcium signal, replicate 1: 91.8
- calcium signal, replicate 2: 112
- activity call: active

l(3)07882 (lethal (3) 07882) [DRSC15882]
- calcium signal, replicate 1: 159
- calcium signal, replicate 2: 193
- activity call: inactive

Spn85F (Serpin 85F) [DRSC14545]
- calcium signal, replicate 1: 108
- calcium signal, replicate 2: 145
- activity call: inactive

Spase25 (Spase 25-subunit) [DRSC19776]
- calcium signal, replicate 1: 141
- calcium signal, replicate 2: 81.6
- activity call: inactive

COX7A (Cytochrome c oxidase subunit 7A) [DRSC16514]
- calcium signal, replicate 1: 102
- calcium signal, replicate 2: 88.2
- activity call: inactive

CG13471 [DRSC10015]
- calcium signal, replicate 1: 124
- calcium signal, replicate 2: 273
- activity call: inactive

CG13116 [DRSC02214]
- calcium signal, replicate 1: 213
- calcium signal, replicate 2: 167
- retest calcium signal, replicate 1: 90.6
- retest calcium signal, replicate 2: 121
- activity call: inactive

CG13116 [DRSC21945]
- calcium signal, replicate 1: 93.2
- calcium signal, replicate 2: 176
- activity call: inactive

mAChR-B (muscarinic Acetylcholine Receptor, B-type) [DRSC16345]
- calcium signal, replicate 1: 93.2
- calcium signal, replicate 2: 224
- activity call: inactive

Ekar (Eye-enriched kainate receptor) [DRSC17161]
- calcium signal, replicate 1: 134
- calcium signal, replicate 2: 195
- activity call: inactive
